These results are taken from US20160177395A1, “BIOMARKERS FOR THE PREDICTION OF RENAL INJURY” (priority 2007, published 2016).

SMILES strings stand for the structures.

The test system of this data set is rat kidney samples. Kind of data set: Random-Forest classifiers applied to un-labeled samples of T1, T2, T3 and control (Table 30). The note with it: for Average 'Toxic' (%): average of the two classifiers. Here is the method: To validate the optimal signature for classification of renal toxicity of a compound after five days of application a test of the signatory polynucleotide/gene expression in rat kidney samples consisting of tissues from rats exposed to three drug compounds and a single control group was carried out (Teva Pharmaceutical Industries, IL).
The two optimal classifiers (signatures described in Tables 26 and 27) were applied to the qRT-PCR reads of the un-labeled samples and their calls was used to assign a level of toxicity to each group and, eventually, each compound.
The classifiers described in Tables 26 and 27, were used for testing the un-labeled samples. Both classifiers were applied to the measurements of each sample, used the 30% bound from above, and the number of samples pass that bound in each group were summarized.

Take `Nc1nc2ccc(OC(F)(F)F)cc2s1` [T3, 6-(trifluoromethoxy)benzothiazol-2-amine]: the “Average 'Toxic' (%)” value by setting is: (Ds1 Day1 Female) 0.2%; (Ds1 Day1 Male) 0%; (Ds1 Day5 Female) 0.085%; (Ds1 Day5 Male) 0.5%; (Ds2 Day1 Female) 0.2%; (Ds2 Day1 Male) 0.3%. Further, the “Average 'Toxic' (%)” value reads like this: (Ds2 Day5 Female) 0.2%; (Ds2 Day5 Male) 0.375%. In addition, under “signatures of Tables 26 and 27, 30% bound”, the “Toxicity conclusion from classifier calls” value is on record as “either real false-positive of the classifier, or a result of some technical problem”.
